These are yes or no findings as the source states them, for the method shown. For part of these data: In cells and extracts the contact can be indirect. Some results given as binding are weak or reduced against the parent protein; the word gives no strength. For part of these data: Where a sequence is shown, tags or fusion partners need not be part of it.
How the values were obtained:
[1] = biological target: T1, S. pombe Cds1 FHA domain (S. pombe) (UniProt Q09170); experiment: summary of the yeast two-hybrid result
T1 sequence (looked up): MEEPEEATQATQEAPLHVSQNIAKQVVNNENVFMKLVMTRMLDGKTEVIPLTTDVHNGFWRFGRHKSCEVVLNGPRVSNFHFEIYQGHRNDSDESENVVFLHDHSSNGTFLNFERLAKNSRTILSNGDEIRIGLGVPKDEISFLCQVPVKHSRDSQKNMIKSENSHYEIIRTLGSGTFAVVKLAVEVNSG

Protein sequences, listed by entry. Tags and fused reporters are not part of them.
UniProt O96017: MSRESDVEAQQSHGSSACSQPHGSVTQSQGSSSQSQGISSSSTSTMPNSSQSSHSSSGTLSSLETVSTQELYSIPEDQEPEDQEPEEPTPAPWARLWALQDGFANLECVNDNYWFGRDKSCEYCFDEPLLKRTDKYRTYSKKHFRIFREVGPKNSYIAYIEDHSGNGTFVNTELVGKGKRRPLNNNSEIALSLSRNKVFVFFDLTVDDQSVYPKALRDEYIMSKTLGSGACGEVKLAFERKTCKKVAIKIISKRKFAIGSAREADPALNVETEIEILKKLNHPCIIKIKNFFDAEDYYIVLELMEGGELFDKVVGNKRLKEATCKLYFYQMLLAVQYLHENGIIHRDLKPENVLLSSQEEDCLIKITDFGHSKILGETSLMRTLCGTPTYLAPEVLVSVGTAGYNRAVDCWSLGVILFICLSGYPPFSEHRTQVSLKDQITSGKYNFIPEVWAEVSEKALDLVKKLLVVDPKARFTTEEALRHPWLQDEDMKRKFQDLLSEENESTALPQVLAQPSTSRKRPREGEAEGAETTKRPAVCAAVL

[2] = biological target: T1, S. pombe Cds1 FHA domain (S. pombe); experiment: yeast two-hybrid screen, Cds1 FHA domain as bait, S. pombe cDNA library as prey
S. pombe Cds1 (S. pombe) = biological target: T2, S. pombe Cds1 (S. pombe) (UniProt Q09170); experiment: co-immunoprecipitation in S. pombe
T2 sequence (looked up): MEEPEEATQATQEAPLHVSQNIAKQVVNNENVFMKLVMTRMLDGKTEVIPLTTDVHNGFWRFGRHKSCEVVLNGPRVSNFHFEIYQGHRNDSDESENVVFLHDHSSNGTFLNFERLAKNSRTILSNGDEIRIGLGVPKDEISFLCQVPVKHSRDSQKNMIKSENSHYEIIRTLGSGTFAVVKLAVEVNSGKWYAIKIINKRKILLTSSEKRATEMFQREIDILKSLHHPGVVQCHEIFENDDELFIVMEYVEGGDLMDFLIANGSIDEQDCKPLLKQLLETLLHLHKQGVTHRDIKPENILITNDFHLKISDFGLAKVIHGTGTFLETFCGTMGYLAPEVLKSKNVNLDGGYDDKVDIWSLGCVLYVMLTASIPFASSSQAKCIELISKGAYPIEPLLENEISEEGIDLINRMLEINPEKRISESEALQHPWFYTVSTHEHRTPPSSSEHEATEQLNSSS

[3] = biological target: FLAG-tagged human Cds1 (human Cds1 ORF in pYC1FLAG, downstream of and in frame with the FLAG epitope) (human) (UniProt O96017); experiment: reciprocal co-immunoprecipitation from transfected HEK293 cells, western blot
[4] = biological target: FLAG-tagged human Cds1 (human Cds1 ORF in pYC1FLAG, downstream of and in frame with the FLAG epitope) (human) (UniProt O96017); experiment: co-immunoprecipitation from transfected mammalian cells
[5] = biological target: FLAG-tagged human Cds1 (human Cds1 ORF in pYC1FLAG, downstream of and in frame with the FLAG epitope) (human) (UniProt O96017); experiment: co-immunoprecipitation, western blots of lysates and immunoprecipitates (FIG. 8)

Measured: binding

B1: S. pombe Mus81 (translation product of ORF SPCC4G3.05c, 572 amino acid hypothetical protein PID g2213548) (protein)
chain: MKSCPITFHRPSQALALKGIGPTICAKLEKKWNAYCLENNIPISTHNEQNDSHVNANKSSSETSSEKPRSVKKPTTRKRKVYVPSYRSGAYSILCALYMLNKHEFATKPQIVTMAQPYCDSSFGSATDRNMRYTAWSAMKTLITKNLVYQTGHPSKYCLTDDGEEVCIRLAKVDDSFQRKHTVSNFSVSKSDDHDSSLCQPPNFVTSINKAGSSSDHGGELHVTYCPVDHNEVSDGVETDIDVDQVDSLTGIHDHHIINNEQLIDLTEQEKKQPNESNLSNLKIETVLFSNCTVFLLIDTREIRSPLDRNLIIDKLTNDFGVNCQVRSLELGDALWVARDMESGQEVVLDFVVERKRYDDLVASIKDGRFHEQKARLKKSGIRSVTYILEESSYDESFTESIRTAVSNTQVDQLFHVRHTRSLEHSVSLLAEMTKQINLFYEKRKTLAVIPDLSIEAKTYESLREQLLKIDPSTPYHISYHAFSSVLSKSSTLTVGDIFIRMLMTIKGISASKAIEIQKKYPTFMHLFEAYEKSSSSQERNLLLNKTCQGYGFQTIGPALSAKVASVFFPES
binds: [1] | [2] | S. pombe Cds1 (S. pombe)

B2: HA-tagged human Mus81 (Hmus811 ORF in pYC1HA, downstream of and in frame with the HA epitope tag) (protein, not shown: small tags and cut ends)
chain: MAAPVRLGRKRPLPACPNPLFVRWLTEWRDEATRSRHRTRFVFQKALRSLRRYPLPLRSGKEAKILQHFGDGLCRMLDERLQRHRTSGGDHAPDSPSGENSPAPQGRLAEVQDSSMPVPAQPKAGGSGSYWPARHSGARVILLVLYREHLNPNGHHFLTKEELLQRCAQKSPRVAPGSAPPWPALRSLLHRNLVLRTHQPARYSLTPEGLELAQKLAESEGLSLLNVGIGPKEPPGEETAVPGAASAELASEAGVQQQPLELRPGEYRVLLCVDIGETRGGGHRPELLRELQRLHVTHTVRKLHVGDFVWVAQETNPRDPANPGELVLDHIVERKRLDDLCSSIIDGRFREQKFRLKRCGLERRVYLVEEHGSVHNLSLPESTLLQAVTNTQVIDGFFVKRTADIKESAAYLALLTRGLQRLYQGHTLRSRPWGTPGNPESGAMTSPNPLCSLLTFSDFNAGAIKNKAQSVREVFARQLMQVRGVSGEKAAALVDRYSTPASLLAAYDACATPKEQETLLSTIKCGRLQRNLGPALSRTLSQLYCSYGPLT
binds: [3] | [4] | [5]
